Test results published in patent publication US20220289688A1, “RNA-TARGETING LIGANDS, COMPOSITIONS THEREOF, AND METHODS OF MAKING AND USING THE SAME” (THE UNIVERSITY OF NORTH CAROLINA AT CHAPEL HILL, priority 2019, published 2022).

Test system: TPP riboswitch RNA
Experiment: Isothermal titration calorimetry (ITC), ligand titrated into RNA
Format: binding
Details: linked compound 37 versus its component fragments

## c1cc(N2CCCCC2)c(NCc2ccc3nccnc3c2)cn1 [Compound 37]
  E (linking coefficient): 2.5
